Paper PMC7819943, “Rice protein-binding microarrays: a tool to detect cis-acting elements near promoter regions in rice”
The list shows a part of the results.

Chains of the proteins cited; added tags and fusions are not shown.
UniProt Q0JBA9, entry or part of it: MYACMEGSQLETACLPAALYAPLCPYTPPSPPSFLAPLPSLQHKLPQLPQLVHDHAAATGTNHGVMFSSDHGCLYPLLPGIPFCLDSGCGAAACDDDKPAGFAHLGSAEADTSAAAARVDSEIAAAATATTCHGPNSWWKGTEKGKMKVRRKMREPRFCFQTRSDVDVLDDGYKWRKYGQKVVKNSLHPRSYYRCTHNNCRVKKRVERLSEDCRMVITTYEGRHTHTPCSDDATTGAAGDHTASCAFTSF

These sequences were tested against OsWRKY34 (Oryza sativa, UniProt Q0JBA9 1-250) (assay: protein-binding microarray (RPBM); PBS, 2% BSA, 51.3 ng/ul salmon testes DNA, 50 uM zinc acetate, 200 nM TF, 25 C, 1 h; high values mean tight binding). Details: protein: recombinant; tags: N-terminal polyhistidine and DsRed monomer fusion (pET32a); label: CyDye5-dUTP incorporated in the synthesized complementary strand; 3' TTTTT single-stranded linker to array surface; dsDNA, one strand shown.
How it was run: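 Transcription factors, each fused N-terminally to a polyhistidine tag and DsRed, were expressed in E. coli BL21-CodonPlus and purified on Ni–NTA. A custom Agilent array was made double-stranded by primer extension with Cy5-dUTP and blocked with 2% BSA. It was incubated with 200 nM protein in PBS, 2% BSA, salmon testes DNA and 50 µM zinc acetate at 25 °C for 1 h, then washed. The binding signal is per-feature fluorescence intensity (arbitrary units) read on an Axon 4000B scanner.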

| Sequence | binding signal |
| --- | --- |
| GCATCGACCGCGCGCGTATACGTTAACGCTCACCTTTGTTCGGAGTCACCTAGTGCAG | 9420 fluorescence intensity (a.u.) |
| AATGCTACCCGTATCTGTATTGATGCTTTATGCTCTCATCCGGAGTCACCTAGTGCAG | 8120 fluorescence intensity (a.u.) |
| AGTACACGGTTGTTTATATTGCGCCACTCTCGCTGACTCGCGGAGTCACCTAGTGCAG | 8800 fluorescence intensity (a.u.) |
| GATTTTGACTTTTTACTTGCACTGTTTGACCATTCATATTCGGAGTCACCTAGTGCAG | 16300 fluorescence intensity (a.u.) |
| AATGGTTTGGTTGTTGTTTTTTTTAAAAAAAACTTTCAGGCGGAGTCACCTAGTGCAG | 8170 fluorescence intensity (a.u.) |
| TTAAACGGTCATTCTTGTGTTTTTCCTGTATTTTCTAATCCGGAGTCACCTAGTGCAG | 9220 fluorescence intensity (a.u.) |
| CAAGGCCAACCGTATCCCATTACAACATTTTTCGCCGTCGCGGAGTCACCTAGTGCAG | 8380 fluorescence intensity (a.u.) |
| ATATCTGTATTTTTGGCGCCAAACATGGTTTACCATTCTCCGGAGTCACCTAGTGCAG | 8420 fluorescence intensity (a.u.) |
| CTCGCCTCGCCTCGCCTCCGGTCCGTCCCCGTCGCCGATGCGGAGTCACCTAGTGCAG | 8480 fluorescence intensity (a.u.) |
| GGGGATTGGTTTGGTGTGGGTGTTTTGTGTGGGGATTGATCGGAGTCACCTAGTGCAG | 28100 fluorescence intensity (a.u.) |
| GAGTTCGTAGCTTTTAGGGTCATGCGGGGTTCTACCGTTGCGGAGTCACCTAGTGCAG | 10500 fluorescence intensity (a.u.) |
| CATTCAATGTGTTCTGTGTTAGATAACCTTATGCCCCACGCGGAGTCACCTAGTGCAG | 9170 fluorescence intensity (a.u.) |
| TCAAAACTGAATTATCTTTGCGTGTGTGTTTGATCTATTTCGGAGTCACCTAGTGCAG | 8290 fluorescence intensity (a.u.) |
| ATGTACTAACTCCACGTTTTAATGCATGCAATATTTCTTTCGGAGTCACCTAGTGCAG | 8410 fluorescence intensity (a.u.) |
| TTCTCCACACCCTGATTGTTTCTAGATTTTTTTTTATTCTCGGAGTCACCTAGTGCAG | 8830 fluorescence intensity (a.u.) |
| ACGACTTTATCAATTGTTCTACAATACGCCATTGAGCTTCCGGAGTCACCTAGTGCAG | 9190 fluorescence intensity (a.u.) |
| CGGGCCATCCAGAAGTGACCGAAATGTGGGAGGGGTTTTCCGGAGTCACCTAGTGCAG | 12500 fluorescence intensity (a.u.) |
| TCCCCACCTCCCCAATCCCTGCCCCAGTTGAGCGTTCCTTCGGAGTCACCTAGTGCAG | 8910 fluorescence intensity (a.u.) |
| CACCGTGCCATCTCTCTCTCTTTTTTACTTCTCGGGCTTTCGGAGTCACCTAGTGCAG | 14100 fluorescence intensity (a.u.) |
| ATGATTTGATTGGTCAGGACATTATTATCTTGGTCGTACTCGGAGTCACCTAGTGCAG | 11100 fluorescence intensity (a.u.) |
| ACAGGCACCTCGCTGTCAACGGGTACGCCACCTACCACTGCGGAGTCACCTAGTGCAG | 8130 fluorescence intensity (a.u.) |
| AACACTCCAATGCCAACAACACAACCTGCTCATATCATAACGGAGTCACCTAGTGCAG | 12300 fluorescence intensity (a.u.) |
| GATTGTTGGCCCCACATTTTTTGTGTCACTTACATGTGGGCGGAGTCACCTAGTGCAG | 8620 fluorescence intensity (a.u.) |
| TTGGGAGGGGAGGGAGGAGGCACAAGAGTGGTGAGGAGAACGGAGTCACCTAGTGCAG | 8700 fluorescence intensity (a.u.) |
| CTTAACCTCTTCACGCCACCGCCGGCCACCACCACCACTCCGGAGTCACCTAGTGCAG | 10900 fluorescence intensity (a.u.) |
| TCTCACTCCCATTCTCACTCGCACTCCCATTCACATTCCCCGGAGTCACCTAGTGCAG | 11400 fluorescence intensity (a.u.) |
| GGTTATGCTATTACTTTATTATCATGCCGCACATTTCAGACGGAGTCACCTAGTGCAG | 8300 fluorescence intensity (a.u.) |

| Sequence | binding signal |
| --- | --- |
| TCAATTTTCTTGTTGACTCGGTGTTTTTGACTGTGGTCAACGGAGTCACCTAGTGCAG | 10900 fluorescence intensity (a.u.) |
| CACTTTGCCTTCGCTTTAGCCTTTGTGCTGTAACTTGCAACGGAGTCACCTAGTGCAG | 13900 fluorescence intensity (a.u.) |
| GGAGGTGGTGGTTGGCAAGCTGGATACATGGATGGTTGTGCGGAGTCACCTAGTGCAG | 9800 fluorescence intensity (a.u.) |
| TGATAATTTAACGCTTTTTTCATTGTCCAATTACTTTAATCGGAGTCACCTAGTGCAG | 9100 fluorescence intensity (a.u.) |
| TGTTTTCTTCTCATTCTTCTTTTTTCCCTTTCTTTTGCTCCGGAGTCACCTAGTGCAG | 8390 fluorescence intensity (a.u.) |
| TCTCTCCCTATAGCTTCTTGTTGTTGTTGTTGTTGTTCTCCGGAGTCACCTAGTGCAG | 8230 fluorescence intensity (a.u.) |
| ACCATTTGTTCATTTGCCGCATCACATCACATCAACGTATCGGAGTCACCTAGTGCAG | 9180 fluorescence intensity (a.u.) |
| TGTGCTTAGGTCAGCTTTGTCGATTTGTAGTCGTCTGTATCGGAGTCACCTAGTGCAG | 9010 fluorescence intensity (a.u.) |
| TGAGGGGTTTGGTTACAATTTCTTCTCCCAATTTAAAAACCGGAGTCACCTAGTGCAG | 9950 fluorescence intensity (a.u.) |
| TTTGATTTCTTGGAAGAAACCACTTATTGTACCAATGTTCCGGAGTCACCTAGTGCAG | 8240 fluorescence intensity (a.u.) |
| CGATCATGACACGACCGTCTTCACCTTGTAGTTCCGCGCGCGGAGTCACCTAGTGCAG | 9180 fluorescence intensity (a.u.) |
| ACTGGTTTTACACATTATGTGGGCTAACTTAATACTCCTTCGGAGTCACCTAGTGCAG | 8040 fluorescence intensity (a.u.) |
| GAATCGGAGGGCGCGCCCATCCCTTCGCTTTTCCGCAACACGGAGTCACCTAGTGCAG | 8190 fluorescence intensity (a.u.) |
| TGAGGTTGATATATACTCTGATTTATTTATTCGTACACATCGGAGTCACCTAGTGCAG | 9810 fluorescence intensity (a.u.) |
| TCTCAAACAAACGGTCAGTACCAACATTTGCTATTTATCACGGAGTCACCTAGTGCAG | 8050 fluorescence intensity (a.u.) |
| CCAATACGCCCCACACCTCTCCACTCCTGTCCTGTCATCTCGGAGTCACCTAGTGCAG | 8240 fluorescence intensity (a.u.) |
| CATATAACAACATACATACGCGCGCACTCTTTTTTCTTAACGGAGTCACCTAGTGCAG | 9420 fluorescence intensity (a.u.) |
| AATTATTCTATTTGCAGTCAATGGCAAAGTCTTCCTGTTCCGGAGTCACCTAGTGCAG | 10800 fluorescence intensity (a.u.) |
| GTGAGAAAAAGTCAACGGCGTCATCTATTAAAAAACGGAGCGGAGTCACCTAGTGCAG | 15200 fluorescence intensity (a.u.) |
| TTTGCCATGTCAATCTTCTGTTTTCACATAGCTTCACCGACGGAGTCACCTAGTGCAG | 8570 fluorescence intensity (a.u.) |
| ACCCGCACCGCCCTCGACCGCCGCCCGTCGCGTCCCGCCTCGGAGTCACCTAGTGCAG | 8920 fluorescence intensity (a.u.) |
| CTTCTGTTGATCAGGGTTGGTAATCTTGTATTGGTTCCATCGGAGTCACCTAGTGCAG | 9700 fluorescence intensity (a.u.) |
| TCTCTCTCTCTCTCTGCATCTTCTTCTTCTTCTTCCAGTGCGGAGTCACCTAGTGCAG | 8520 fluorescence intensity (a.u.) |
| TCCTTCATTGTACTACTGCTCCTGCTTGCTCTTTCGCTTTCGGAGTCACCTAGTGCAG | 8320 fluorescence intensity (a.u.) |
| GTACTTACCATGAAACTCTTATATATTTACATTGTAATTTCGGAGTCACCTAGTGCAG | 8070 fluorescence intensity (a.u.) |
| CTCCAGCCGCCGCCTGGGCTGAACCCTAACTGCGCCATCACGGAGTCACCTAGTGCAG | 8750 fluorescence intensity (a.u.) |
| GCCCTATTTCATATAAATTTTCTTCAGTAGTCTTGCTCTACGGAGTCACCTAGTGCAG | 9310 fluorescence intensity (a.u.) |

Single values from the entries so far.
Value of CACTTTGCCTTCGCTTTAGCCTTTGTGCTGTAACTTGCAACGGAGTCACCTAGTGCAG under binding signal: 13900 fluorescence intensity (a.u.)
Value of AACACTCCAATGCCAACAACACAACCTGCTCATATCATAACGGAGTCACCTAGTGCAG under binding signal: 12300 fluorescence intensity (a.u.)
Value of TGATAATTTAACGCTTTTTTCATTGTCCAATTACTTTAATCGGAGTCACCTAGTGCAG under binding signal: 9100 fluorescence intensity (a.u.)
Value of ATGTACTAACTCCACGTTTTAATGCATGCAATATTTCTTTCGGAGTCACCTAGTGCAG under binding signal: 8410 fluorescence intensity (a.u.)
